# Data as given in PubChem BioAssay AID1053208 (Peter MacCallum Cancer Centre, 2014).
# Purpose: 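Find knock-downs that sensitise mouse osteosarcoma cells to doxorubicin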 (primary screen)
# System: mouse osteosarcoma cells, early-passage culture from an engineered mouse model of fibroblastic bone tumour
# Reagent: siRNA pool against mouse genes, 40 nM
# Timing: about 120 h (48 h before drug, then 72 h with drug)
# Treatment: doxorubicin 100 nM for 72 h, roughly 30-40% inhibitory dose
# Detection: 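Viability read as ATP luminescence after 72 h of 100 nM doxorubicin or none, duplicate wells averaged, scaled to non-targeting siRNA, then expressed as robust z-scores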
# Direction: viability z-score with doxorubicin and doxorubicin viability vs non-targeting: higher = more viable cells under doxorubicin; viability z-score without drug: higher = more viable cells with knock-down alone; z-score of drug to no-drug ratio: higher = less drug sensitisation by knock-down
# Rule for the call: 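a pool counts as active when its viability z-score with doxorubicin is -2 or below and its z-score without drug lies between -2 and 2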
# Shown is one part, drawn at random, of about 17,000 reagents tested. 788 of them (4.7%) count as active. 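Calls rest on z-score classes alone; an extra cut-off of viability at most 70% of control was not applied to them.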 Entries without a mark were called inactive. The numbers tell different reagents against one gene apart.
Target gene,reagent,combined z-score class,viability z-score with doxorubicin,viability z-score without drug,z-score of drug to no-drug ratio,doxorubicin viability vs non-targeting
Fhl1,1,no change with or without drug,0.34,0.51,0.11,0.97
Rpl10a,1,no change with or without drug,-0.9,-0.51,-0.56,0.86
Actn3,1,no change with or without drug,-0.34,0.67,-0.67,0.91
Per1,1,no change with or without drug,-0.22,-0.17,0,0.92
Rpl35a,1,low cell count with and without drug,-7.87,-8.26,-5.17,0.24
Kctd9,1,no change with or without drug,-0.9,-0.51,-0.56,0.86
Rapgef4,1,no change with or without drug,0,-1.01,0.9,0.94
Rapgef4,2,no change with or without drug,-0.22,0.17,-0.22,0.92
Sync,1,no change with or without drug,-0.11,0.51,-0.34,0.93
Klri2,1,no change with or without drug,0.56,1.18,-0.11,0.99
Cebpe,1,no change with or without drug,1.12,1.18,0.45,1.04
Muc4,1,high cell count without drug only,0.67,2.19,-0.56,1
Muc4,2,no change with or without drug,-1.8,-1.18,-1.01,0.78
Fam78b,1,no change with or without drug,0.67,-0.84,1.46,1
Gucy2e,1,no change with or without drug,1.12,1.52,0.22,1.04
Gzma,1,high cell count with and without drug,2.02,2.02,0.79,1.12
Sprr2f,1,high cell count with and without drug,2.59,2.53,0.9,1.17
Or2ag2b,1,no change with or without drug,-0.34,-0.51,0.11,0.91
Spata6,1,no change with or without drug,0.79,-0.84,1.57,1.01
Opalin,1,no change with or without drug,0.34,1.18,-0.34,0.97
Or4d10b,1,no change with or without drug,-0.45,0,-0.34,0.9
Fxyd1,1,no change with or without drug,-0.11,-0.17,0.11,0.93
Arcn1,1,low cell count with and without drug,-8.09,-6.07,-6.86,0.22
Ntrk3,1,no change with or without drug,-0.11,0.84,-0.56,0.93
Wdr74,1,no change with or without drug,0,-1.18,1.01,0.94
Zdhhc7,1,no change with or without drug,0.11,-0.51,0.56,0.95
Adprm,1,no change with or without drug,-0.67,1.69,-1.57,0.88
Ca11,1,no change with or without drug,-0.9,0,-0.79,0.86
Jag1,1,no change with or without drug,-1.8,-0.17,-1.69,0.78
Psph,1,no change with or without drug,1.57,0.34,1.46,1.08
B330016D10Rik,1,high cell count with doxorubicin only,2.36,1.18,1.69,1.15
Cdx4,1,no change with or without drug,0.22,1.01,-0.34,0.96
Rps25,1,no change with or without drug,-0.34,-1.69,1.01,0.91
Six2,1,no change with or without drug,0.9,0.67,0.56,1.02

Copied from the entries so far for reference:
Target gene,reagent,combined z-score class,viability z-score with doxorubicin,viability z-score without drug,z-score of drug to no-drug ratio,doxorubicin viability vs non-targeting
Kctd9,1,no change with or without drug,-0.9,-0.51,-0.56,0.86
Rapgef4,1,no change with or without drug,0,-1.01,0.9,0.94
Rapgef4,2,no change with or without drug,-0.22,0.17,-0.22,0.92
Sync,1,no change with or without drug,-0.11,0.51,-0.34,0.93
Klri2,1,no change with or without drug,0.56,1.18,-0.11,0.99
